According to paper PMC10905880:
These are yes or no findings as the source states them, for the method shown. For some of these results: Binding can be weak; no strength is given. One block for each binder: values may come before it.

How the values were obtained:
Assay in all cases: two-hybrid; OsCYCDs in pGBKT7 (BD), OsRBRs and OsCDKAs in pGADT7 (AD), co-transformed into AH109; growth on SD/-Ade/-His/-Trp/-Leu with 5 mM 3-AT, 30 C
[1] = target: OsCYCD4;1 (rice (Oryza sativa L. spp. japonica, Nipponbare))
[2] = target: OsCYCD2;1 (rice (Oryza sativa L. spp. japonica, Nipponbare))
[3] = target: OsCYCD6;1 (rice (Oryza sativa L. spp. japonica, Nipponbare))
[4] = target: OsCYCD4;2 (rice (Oryza sativa L. spp. japonica, Nipponbare))
[5] = target: OsCYCD3;2 (rice (Oryza sativa L. spp. japonica, Nipponbare))
[6] = target: OsCYCD2;3 (rice (Oryza sativa L. spp. japonica, Nipponbare))
[7] = target: OsCYCD5;1 (rice (Oryza sativa L. spp. japonica, Nipponbare))
[8] = target: OsCYCD1;1 (rice (Oryza sativa L. spp. japonica, Nipponbare))
[9] = target: OsCYCD5;2 (rice (Oryza sativa L. spp. japonica, Nipponbare))
[10] = target: OsCYCD2;2 (rice (Oryza sativa L. spp. japonica, Nipponbare))
[11] = target: OsCYCD7;1 (rice (Oryza sativa L. spp. japonica, Nipponbare))
[12] = target: OsCYCD1;2 (rice (Oryza sativa L. spp. japonica, Nipponbare))
[13] = target: OsCYCD5;3 (rice (Oryza sativa L. spp. japonica, Nipponbare))
[14] = target: OsCYCD3;1 (rice (Oryza sativa L. spp. japonica, Nipponbare))

binding [1]: binds | binding [2]: binds | binding [3]: no binding | binding [4]: no binding | binding [5]: binds | binding [6]: binds | binding [7]: binds | binding [8]: binds | binding [9]: binds | binding [10]: no binding | binding [11]: no binding | binding [12]: binds | binding [13]: binds | binding [14]: binds
B1: OsRBR2 (protein, UniProt Q2R374 1-978)
chain: MASQPPAAVEARLADLCKELGVDEGVAGEAAAVLEEGKGALLASPSFGSKSPEDAEKLCFAFVLYCVSKLKETKAGSSGVRLWEILKGCKLKYDDFFKESQRLASRIDQVLGSRYGSDWEARLELKQLENLVNLLADASRFYCKAFNELFLSPSTDQEPGSTTNIPDYIRFGWLLFLILRSKSPELFKDLVSCIHGLVAILAILLIHVPAKFRSFTIEGSSHLIKQTEKGVDLLPSLCHNYHTSEDRLKEMMGKSYKVIEVFFSRKAINASEFKTVNLDKIDTDGLMYFKDLVDDEIFQSNLEKLEKLSSTTGCQGELDLEMFLTSNDYVLNAENSSGSSANFGCSKRVFETLASPTKTIKNMLAAPSSPSSPANGGSIKIVQMTPVTSAMTTAKWLRDVISSLPDKPSSKLEEFLSSCDTDLTSDVVKRVSIILEAIFPTKSIDRGTSIGLNCANAFDIPWAEARKMEASKLYYRVLEAICRAESQNNNVNNLTPLLSNERFHRCLIACSAELVLATHKTVIMMFPAVLESTGLTAFDLSKIIENFVRHEETLPRELKRHLNSLEEQLLESMSWEKGSSLYNSLVVARPSLSTEINSLGLLAEPMPSLDGIVARQSIHPDGLPPTPSKRWPSAGPDGNCYPQSPKRLCTESRNSLVERNSQTPPPKQSQTGLSILKAKYHPLQATFASPTVSNPVSGNEKCAVVGVQIFFSKILKLAAIRIRNLCERLRHEELTVSVYNIFKQILDQQTALFFNRHVDQIILCCLYGVAKVSQLSLTFKEIVNNYKREPQCKPEVFRSIFVGSTNRNGGFGSRHVDIIVFYNQVFVPTVKPLLVALMPSSTRPEDKRNTNSQIPGSPKSSPFSNLPDMSPKKVSSSHNVYVSPLRQTKMDALLSPSSRSFYACIGESTQAFQSPSKDLAAINSRLNYPTRRINTRINFDMVSDSVVAGSLGQPNGGSASSDPAAAFSPLSKKSKTDS

binding [1]: no binding | binding [2]: no binding | binding [3]: no binding | binding [4]: no binding | binding [5]: binds | binding [6]: no binding | binding [7]: binds | binding [8]: binds | binding [9]: binds | binding [10]: binds | binding [11]: no binding | binding [12]: binds | binding [13]: binds | binding [14]: no binding
B2: OsRBR1 (protein, UniProt Q84QM3 1-1010)
chain: MEGAAPPASSGSEVTGAGSGKVDAGGGAAMEERFADLCKSKLGLDESITRQAMQLFKESKSILLSSMSSLGSGSPEEIERFWSAFVLYCVSRLGKAGKGKEDGGISLCQILRAFSLNIVDFFKEMPQFCIKVGSVLAGLYGSDWEKRLELKELQANVVHLSLLSRYYKRAYQELFLLNDAKPPENSAEPNAQASDYYRFGWLLFLVLRIQTFSRFKDLVTSTNGLVSVLAVLIVHIPVRLRNFNIKESSSFAKKSDKGVNLIASLCEKYHTSEDELSKAIEKTNTLIVDILKKKPCPAASECQQDRLSFIDPEGLTYFKNLLEEDSLKLSLLMLEKEYENAINTKGELDERMFANDEDSLLGSGSLSGGAINLPGTKRKYDVMASPAKSITSPSPMSPPRFCASPTGNGYCSSKMAPITPVSTAMTTAKWLRSTISPLPSKPSGELLRFFSACDKDVTDDITRRAGIILGAIFTSSSFGERICTSVRSTNRIDAIWTEQRKMEALKLYYRVLESMCRAETQILSGNNLTSLLSNERFHRCMIACSAELVLATHKTVTMMFPAVLEKTGITAFDLSKVIESFVRHEDTLPRELKRHLNSLEERLLESMAWEKGSSMYNSLIVARPTLSAEINRLGLLAEPMPSLDAIAAHHNISLEGLPPLPFQKQEHSPDKDEVRSPKRACTERRNVLVDNNSFRSPVKDTLKSKLPPLQSAFLSPTRPNPAAGGELCAETGIGVFLSKIAKLAAIRIRGLCERLQLSQQVLERVYSLVQQIIIQQTALFFNRHIDQIILCSIYGVAKISQLALTFKEIIFGYRKQSQCKPQVFRSVYVHWASRSRNGKTGEDHVDIITFYNEVFIPTVKPLLVELGSGTSPNKKNEEKCAADGPYPESPRLSRFPNLPDMSPKKVSAAHNVYVSPLRTSKMDTLLSPSSKSYYACVGESTHAFQSPSKDLKVINNRLNSGKKVSGRLNFDVVSDLVVARSLSDQNSASAAATTADIATKTPVKLEQPDC
